The experiment relates to A431 cells. Nature of the experiment: A431 inhibition assay (cell proliferation, CellTiter-Glo, 72 h). The format is cell-based, human. To be noted: read-out: A431 IC50 (nM) WT, cellular proliferation, wild type EGFR.

Our source for the IC50 values is US20200131176A1, “SELECTIVE INHIBITORS OF CLINICALLY IMPORTANT MUTANTS OF THE EGFR TYROSINE KINASE” (CS Pharmatech Limited, priority 2017, published 2020).

A number of entries come with more than one value. Only these are listed. The source may hold further records. Values that stand side by side differ, and nothing given here explains why; dose, time, organism, isomer or construct need not be as stated for each record.

As for `C=CC(=O)Nc1cc(Nc2nccc(-c3c[nH]c4ccccc34)n2)c(OC)cc1N(C)CCN(C)C` [AZD5104], the IC50 is listed as 313 nM, 133 nM, 105 nM.
